Data taken from patent US8512723B2, “Antimicrobial compositions and methods” (3M Innovative Properties Company, priority 2003, dated 2013).
Some of these results come from one statement about several compounds together.

Tested on: MRSA #561 (clinical isolate of methicillin resistant staphylococcus)
Assay: Murine MRSA nasal colonization model
Format: in vivo, mice
Conditions: Fisher's exact test
Method: 1999 Infect and Immunity 67(10) 5001-5006. Prior to evaluation of the active compositions the lowest number of S. aureus required to establish nasal colonization in 70% of mice detectable 5 days after challenge and persisting at least 10 days after challenge was determined. This was using an innoculum of 10^8 cfu/nare. Mice (239 described as 25 g to 30 g Hsd:ICR) were challenged intranasally with 10^8 MRSA #561 (a clinical isolate of methicillin resistant staphylococcus obtained from Mayo Clinic, Rochester, Minn.) and arbitrarily assigned to one of five treatment regimens: mupirocin ointment, bland ointment, antimicrobial compositions of Examples 31, 32, and 33. The bland ointment consisted of petrolatum (89%), glycerin (10%) and DOSS (1%). Mice received either no treatment (none) or treatment with 10 μL per nare of warmed (42° C.) ointment (one of five) to each nare, three times daily for two days Three days after treatment, both anterior nares were swabbed and cultured for MRSA. […] S. aureus was detected in 160 colonization cultures from 239 mice challenged. […] The results of the treatments are listed in Table 9e as the number of animals with no MRSA detected after treatment (successful), the percent of the animals treated successfully, the number of animals with MRSA (failure), and the percent of animals whose treatment failed.

`C/C(=C\C(=O)OCCCCCCCCC(=O)O)C[C@@H]1OC[C@H](C[C@@H]2O[C@H]2[C@@H](C)[C@H](C)O)[C@@H](O)[C@H]1O` [Mupirocin, mupirocin] was tested, and the “P versus no treatment” value was under 0.05.
